The values that follow come from patent US20240408093A1, “HETEROBIFUNCTIONAL COMPOUNDS AND THEIR USE IN TREATING DISEASE” (HALDA THERAPEUTICS OPCO, INC., priority 2022, published 2024).

The chains behind the UniProt entries cited, without tags or fusion partners.
UniProt P15170, whole entry: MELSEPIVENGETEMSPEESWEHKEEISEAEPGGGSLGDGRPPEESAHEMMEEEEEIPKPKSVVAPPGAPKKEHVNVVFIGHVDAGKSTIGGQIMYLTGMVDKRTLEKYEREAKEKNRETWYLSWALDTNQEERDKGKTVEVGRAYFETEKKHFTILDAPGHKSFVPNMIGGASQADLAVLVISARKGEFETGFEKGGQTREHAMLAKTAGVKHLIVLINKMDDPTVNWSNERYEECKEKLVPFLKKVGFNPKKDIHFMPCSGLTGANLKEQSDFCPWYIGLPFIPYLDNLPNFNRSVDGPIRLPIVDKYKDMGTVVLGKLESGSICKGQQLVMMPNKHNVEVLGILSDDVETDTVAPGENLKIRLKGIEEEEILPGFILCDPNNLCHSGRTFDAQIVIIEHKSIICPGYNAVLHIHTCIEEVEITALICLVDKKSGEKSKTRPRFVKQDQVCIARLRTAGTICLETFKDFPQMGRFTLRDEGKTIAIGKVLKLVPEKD
UniProt Q96SW2, whole entry: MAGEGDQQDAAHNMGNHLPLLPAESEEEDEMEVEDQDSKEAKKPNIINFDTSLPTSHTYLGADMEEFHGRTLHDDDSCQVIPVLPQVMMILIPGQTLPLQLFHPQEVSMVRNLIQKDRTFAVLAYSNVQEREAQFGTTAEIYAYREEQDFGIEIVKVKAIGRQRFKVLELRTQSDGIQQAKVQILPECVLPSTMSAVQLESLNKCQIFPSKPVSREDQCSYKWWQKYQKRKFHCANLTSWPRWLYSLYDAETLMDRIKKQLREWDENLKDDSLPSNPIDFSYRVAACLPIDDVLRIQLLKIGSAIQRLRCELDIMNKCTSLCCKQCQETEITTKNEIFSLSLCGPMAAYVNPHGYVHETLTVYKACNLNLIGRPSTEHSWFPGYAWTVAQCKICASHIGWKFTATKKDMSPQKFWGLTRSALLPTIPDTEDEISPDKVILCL
UniProt Q06187, whole entry: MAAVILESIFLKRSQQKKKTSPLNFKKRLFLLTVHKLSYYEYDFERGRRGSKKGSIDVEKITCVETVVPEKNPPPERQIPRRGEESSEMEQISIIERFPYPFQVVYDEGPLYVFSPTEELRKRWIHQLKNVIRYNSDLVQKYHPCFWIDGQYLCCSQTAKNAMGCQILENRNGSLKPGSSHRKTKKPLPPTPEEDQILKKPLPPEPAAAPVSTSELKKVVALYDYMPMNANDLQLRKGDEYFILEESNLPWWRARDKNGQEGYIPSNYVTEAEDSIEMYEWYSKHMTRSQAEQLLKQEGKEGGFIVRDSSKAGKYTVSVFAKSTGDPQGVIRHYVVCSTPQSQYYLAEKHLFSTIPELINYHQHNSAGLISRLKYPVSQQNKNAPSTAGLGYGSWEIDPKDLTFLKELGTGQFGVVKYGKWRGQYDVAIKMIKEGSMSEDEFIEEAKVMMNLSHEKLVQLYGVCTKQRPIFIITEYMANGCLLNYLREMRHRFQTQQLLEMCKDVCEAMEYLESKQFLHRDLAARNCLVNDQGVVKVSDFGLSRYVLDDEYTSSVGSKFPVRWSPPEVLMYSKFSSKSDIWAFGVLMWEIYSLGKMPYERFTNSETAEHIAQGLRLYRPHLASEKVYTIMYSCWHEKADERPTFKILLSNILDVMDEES
UniProt Q16531, whole entry partner: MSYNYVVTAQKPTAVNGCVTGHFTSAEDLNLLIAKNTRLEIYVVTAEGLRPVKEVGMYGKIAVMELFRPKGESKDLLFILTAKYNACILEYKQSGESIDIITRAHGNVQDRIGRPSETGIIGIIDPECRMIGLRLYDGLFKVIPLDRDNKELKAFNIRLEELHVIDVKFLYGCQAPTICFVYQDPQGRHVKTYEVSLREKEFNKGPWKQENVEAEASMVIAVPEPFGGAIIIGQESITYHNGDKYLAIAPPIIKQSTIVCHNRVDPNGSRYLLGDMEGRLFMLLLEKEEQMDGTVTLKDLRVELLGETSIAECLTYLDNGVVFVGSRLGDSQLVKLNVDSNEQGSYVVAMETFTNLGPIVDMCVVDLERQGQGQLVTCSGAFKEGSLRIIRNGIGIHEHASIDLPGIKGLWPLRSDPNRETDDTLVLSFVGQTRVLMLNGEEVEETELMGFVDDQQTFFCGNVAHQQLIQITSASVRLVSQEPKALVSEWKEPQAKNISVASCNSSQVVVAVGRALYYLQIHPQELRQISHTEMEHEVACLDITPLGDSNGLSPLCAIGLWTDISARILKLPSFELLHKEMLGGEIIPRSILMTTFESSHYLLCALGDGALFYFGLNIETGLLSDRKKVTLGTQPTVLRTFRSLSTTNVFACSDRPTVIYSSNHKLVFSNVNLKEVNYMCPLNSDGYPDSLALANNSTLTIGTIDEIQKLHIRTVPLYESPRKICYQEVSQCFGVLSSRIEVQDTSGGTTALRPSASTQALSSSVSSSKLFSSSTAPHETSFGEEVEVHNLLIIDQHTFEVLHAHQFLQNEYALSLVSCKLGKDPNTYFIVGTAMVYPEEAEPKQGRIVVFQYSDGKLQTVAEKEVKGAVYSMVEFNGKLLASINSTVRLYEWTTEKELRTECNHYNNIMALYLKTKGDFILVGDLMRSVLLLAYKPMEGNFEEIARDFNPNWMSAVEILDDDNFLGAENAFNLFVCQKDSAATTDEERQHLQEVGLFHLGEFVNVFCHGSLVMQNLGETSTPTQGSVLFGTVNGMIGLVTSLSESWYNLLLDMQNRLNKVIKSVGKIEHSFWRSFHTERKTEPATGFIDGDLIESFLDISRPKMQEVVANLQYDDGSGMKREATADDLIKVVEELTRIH

Structures were worked out from names or drawings and are uncertain. Some results are limits rather than exact numbers.

The target in experiment [1] is GSPT1 (Homo sapiens, UniProt P15170+Q96SW2). The experiment is described as follows: GSPT1 HiBiT degradation assay. The settings on record: HEK293 LgBiT GSPT1 HiBiT cells, 6 hours. The text has this:
Promega developed a HEK293 cell line that constitutively expresses LgBiT protein and GSPT1_HiBiT fusion protein. When both proteins are present, the HiBiT portion of the fusion protein combines with LgBiT protein to form a functional luciferase enzyme. Endurazine, a cell permeable small molecule, is converted by cellular esterases into furimazine, which the luciferase enzyme uses as a substrate to generate luminescence. When GSPT1 is degraded, the HiBit is also degraded. This prevents formation of fully functional luciferase, leading to a loss in luminescence. GSPT1 degradation therefore correlates with a decrease in luminescence and can be measured continuously over time. The concentration of compound at which 50% GSPT1 degradation occurs (DC50) may be calculated using this system.
HEK293 LgBiTGSPT1 HiBiT CRISPR Knock-in cells were cultured in DMEM Media supplemented with 10% Heat-inactivated FBS, 1% Penicillin/Streptomycin, 200 μg/mL hygromycin and stored in a humidified incubator set at 37° C. and 5% CO2. […] After 6 hours, the plate was read on a Perkin Elmer MultiMode Plate Reader Envision 2105 to measure luminescence signal. Data were plotted in Prism (Graphpad) and the concentration of compound at which 50% GSPT1 degradation occurs (DC50) was calculated.

Experiment [2] deals with HeLa cells (ATCC CCL-2). The experiment is described as follows: Cellular growth inhibition assay, HeLa cells (Example 16). The settings on record: read-out: HeLa (GI50), 72 hours, CellTiter-Glo 2.0. The method, then: Exemplary compounds were tested for ability to inhibit the proliferation of HEK293 cells (ATCC CRL-1573) and HeLa cells (ATCC CCL-2).
HEK293 and HeLa cells were cultured in DMEM (Gibco 11995), supplemented with 10% Heat-inactivated FBS (Gibco A38400-01) and 1% Penicillin/Streptomycin (Gibco 15140-122) at 37° C. with 5% CO2 in a humidified tissue culture incubator. Cells were seeded at 500 cells/well in 384-well, Poly-D-lysine-treated blackplates (Perkin Elmer 6007710) in 25 μL media lacking selection for 18-24 hours. Plates were spun at 300 g for 30 seconds and stored in the incubator overnight. After 24 hours, a 25 μL aliquot of compound-containing medium was added in each well, at a final top concentration of 10 μM test compound, with 3-fold dilutions, using DMSO alone as a negative control. Plates were then spun at 300×g for 3 minutes again and cultured at 37° C. with 5% CO2. After 72 hours, cell viability was quantified with CellTiter-Glo 2.0 (Promega). After equilibrating cell plates at room temperature for 30 minutes, 25 μL CellTiter-Glo 2.0 reagent was dispensed into each well. Plates were mixed on a shaker for 2 minutes at 500 rpm, followed by a 10-minute incubation at room temperature. Luminescence readings were measured with an EnVision Plate Reader (Perkin Elmer). Data was normalized to DMSO treated cell wells. A four-parameter non-linear regression curve fit was applied to dose-response data in Prism to determine the half maximal growth inhibitory concentration (GI50) of each compound.

For experiment [3], the target named is full-length BTK (amino acids 1-659) (Homo sapiens, UniProt Q06187). Nature of the experiment: KdELECT binding assay, BTK. As to the method:
Exemplary compounds were tested for ability to bind to full-length BTK (amino acids 1-659; Accession Number NP_000052.1) expressed from mammalian cells. Compounds were tested using the KdELECT assay.
Kinase-tagged T7 phage strains were prepared in an E. coli host derived from the BL21 strain. E. coli were grown to log-phase and infected with T7 phage and incubated with shaking at 32° C. until lysis. The lysates were centrifuged and filtered to remove cell debris. The remaining kinases were produced in HEK-293 cells and subsequently tagged with DNA for qPCR detection. Streptavidin-coated magnetic beads were treated with biotinylated small molecule ligands for 30 minutes at room temperature to generate affinity resins for kinase assays. The liganded beads were blocked with excess biotin and washed with blocking buffer (SeaBlock (Pierce), 1% BSA, 0.05% Tween 20, 1 mM DTT) to remove unbound ligand and to reduce non-specific binding. Binding reactions were assembled by combining kinases, liganded affinity beads, and test compounds in 1× binding buffer (20% SeaBlock, 0.17× PBS, 0.05% Tween 20, 6 mM DTT). Test compounds were prepared as 111× stocks in 100% DMSO. Kd values were determined using an 11-point 3-fold compound dilution series with three DMSO control points. […] The kinase concentration in the eluates was measured by qPCR.

Consider `C=C(CN(C(=O)NCc1ccc2c(c1)CN(C1CCC(=O)NC1=O)C2=O)c1ccc(C)c(Cl)c1)C(=O)N1CCC[C@@H](n2nc(-c3ccc(Oc4ccccc4)cc3)c3c(N)ncnc32)C1` (stereo partly drawn) [Compound I-4], for which, in experiment [1], the DC50 was in the range of 500 to 2500 nM. Moreover, the GI50 in experiment [2] is greater than 10000 nM. Further, the equilibrium dissociation constant (Kd) in experiment [3] lay in the range of 50 to 500 nM.
